{"source": "PubChem BioAssay AID1159578 (Peter MacCallum Cancer Centre, 2015)", "screen": "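Knock-downs that alter how fast lymphatic endothelial cells migrate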 (primary screen)", "cells": "human lymphatic endothelial cells", "reagent": "siRNA pool against human genes, 40 nM", "duration": "48 h after transfection", "measurement": "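Cells stained with dye and imaged after a scratch; covered wound area and nuclei counted, duplicates averaged, migration set against mock wells and turned into a robust z-score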", "scale": "migration robust z-score: higher = faster migration into the scratch; nuclei per well: higher = more cells in the well", "hit rule": "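Pools averaging fewer than 3300 nuclei are never called; remaining pools count as changed when migration robust z lies outside -2 to 2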", "meaning of the calls": "active = migration changed; inactive = no migration change, or too few cells", "note": "The whole screen tested about 18,000 reagents; shown is an unselected part. Of all reagents, about 1,030 (5.7%) were called active. 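Inactive calls also include pools with fewer than 3300 nuclei, whose migration was not assessed.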 Raw values vary from plate to plate and are shown uncorrected. A number with no mark means an inactive call. Further read-outs or replicates are left out here."}
{"gene symbol": "TPBG (trophoblast glycoprotein)", "migration robust z-score": 0.13, "migration class with cell-count check": "migration z between -2 and 2; enough cells", "nuclei per well, duplicate mean": 5586}
{"gene symbol": "OR10K2 (olfactory receptor family 10 subfamily K member 2)", "migration robust z-score": -1.66, "migration class with cell-count check": "migration z between -2 and 2; enough cells", "nuclei per well, duplicate mean": 4492}
{"gene symbol": "OR1J4 (olfactory receptor family 1 subfamily J member 4)", "migration robust z-score": 0.36, "migration class with cell-count check": "migration z between -2 and 2; enough cells", "nuclei per well, duplicate mean": 5428}
{"gene symbol": "OR4F29 (olfactory receptor family 4 subfamily F member 29)", "migration robust z-score": -0.24, "migration class with cell-count check": "migration z between -2 and 2; enough cells", "nuclei per well, duplicate mean": 5460}
{"gene symbol": "RBM14 (RNA binding motif protein 14)", "migration robust z-score": -0.65, "migration class with cell-count check": "migration z between -2 and 2; enough cells", "nuclei per well, duplicate mean": 7028}
{"gene symbol": "UQCRQ (ubiquinol-cytochrome c reductase complex III subunit VII)", "migration robust z-score": 0.29, "migration class with cell-count check": "migration z between -2 and 2; enough cells", "nuclei per well, duplicate mean": 5535}
{"gene symbol": "XPNPEP1 (X-prolyl aminopeptidase 1)", "migration robust z-score": -1.22, "migration class with cell-count check": "migration z between -2 and 2; enough cells", "nuclei per well, duplicate mean": 6043}
{"gene symbol": "FBXO22 (F-box protein 22)", "migration robust z-score": -0.99, "migration class with cell-count check": "migration z between -2 and 2; enough cells", "nuclei per well, duplicate mean": 5220}
{"gene symbol": "APC2 (APC regulator of Wnt signaling pathway 2)", "migration robust z-score": -0.36, "migration class with cell-count check": "migration z between -2 and 2; enough cells", "nuclei per well, duplicate mean": 5726}
{"gene symbol": "PCDH1 (protocadherin 1)", "migration robust z-score": 1.77, "migration class with cell-count check": "migration z between -2 and 2; enough cells", "nuclei per well, duplicate mean": 7351}
{"gene symbol": "LSAMP (limbic system associated membrane protein)", "migration robust z-score": -0.8, "migration class with cell-count check": "migration z between -2 and 2; enough cells", "nuclei per well, duplicate mean": 6422}
{"gene symbol": "COX7A2L (cytochrome c oxidase subunit 7A2 like)", "migration robust z-score": 1.09, "migration class with cell-count check": "migration z between -2 and 2; enough cells", "nuclei per well, duplicate mean": 5488}
{"gene symbol": "WFS1 (wolframin ER transmembrane glycoprotein)", "migration robust z-score": -1.79, "migration class with cell-count check": "migration z between -2 and 2; enough cells", "nuclei per well, duplicate mean": 4586}
{"gene symbol": "HSPB9 (heat shock protein family B (small) member 9)", "migration robust z-score": -0.4, "migration class with cell-count check": "migration z between -2 and 2; enough cells", "nuclei per well, duplicate mean": 4464}

2 entries from above, sorted by “migration robust z-score”, high to low.
{"gene symbol": "UQCRQ (ubiquinol-cytochrome c reductase complex III subunit VII)", "migration robust z-score": 0.29, "migration class with cell-count check": "migration z between -2 and 2; enough cells", "nuclei per well, duplicate mean": 5535}
{"gene symbol": "RBM14 (RNA binding motif protein 14)", "migration robust z-score": -0.65, "migration class with cell-count check": "migration z between -2 and 2; enough cells", "nuclei per well, duplicate mean": 7028}
